The other results are listed elsewhere or left out.
What was measured:
Assay in all cases: glycan array binding signal (z-score within array); higher = stronger binding
Details in all cases: glycan notation: IUPAC condensed, linker removed
[1] = target: Gal3S(b1-3)[Fuc(a1-4)]GlcNAc
Summary of the method: (§1)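 The binding signal is a Z-score computed within each array. Data were drawn from 3228 arrays in the Consortium for Functional Glycomics database, restricted to those with a known protein sequence. Scores were averaged over arrays of the same protein sequence at different concentrations or buffers, and over linkers, and negative values can be taken as non-binding.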

Gal3S(b1-4)Glc = target: Gal3S(b1-4)Glc
Summary of the method: as §1

Gal3S(b1-4)Glc6S = target: Gal3S(b1-4)Glc6S
Summary of the method: as §1

Gal3S(b1-4)GlcNAc = target: Gal3S(b1-4)GlcNAc
Summary of the method: as §1

[2] = target: Gal3S(b1-4)[Fuc(a1-3)]Glc6S
Summary of the method: as §1

[3] = target: Gal3S(b1-4)[Fuc(a1-3)]GlcNAc
Summary of the method: as §1

[4] = target: Gal3S(b1-4)[Fuc(a1-3)]GlcNAc6S
Summary of the method: as §1

Gal3S4S(b1-4)GlcNAc = target: Gal3S4S(b1-4)GlcNAc
Summary of the method: as §1

Gal3S6S(b1-4)GlcNAc = target: Gal3S6S(b1-4)GlcNAc
Summary of the method: as §1

Gal3S6S(b1-4)GlcNAc6S = target: Gal3S6S(b1-4)GlcNAc6S
Summary of the method: as §1

Gal4S(b1-4)GlcNAc = target: Gal4S(b1-4)GlcNAc
Summary of the method: as §1

Gal4S6S(b1-4)GlcNAc = target: Gal4S6S(b1-4)GlcNAc
Summary of the method: as §1

Gal6P(b1-4)GlcNAc = target: Gal6P(b1-4)GlcNAc
Summary of the method: as §1

Gal6S(b1-3)GlcNAc = target: Gal6S(b1-3)GlcNAc
Summary of the method: as §1

Gal6S(b1-3)GlcNAc6S = target: Gal6S(b1-3)GlcNAc6S
Summary of the method: as §1

Gal6S(b1-4)Glc = target: Gal6S(b1-4)Glc
Summary of the method: as §1

Gal6S(b1-4)Glc6S = target: Gal6S(b1-4)Glc6S
Summary of the method: as §1

Gal6S(b1-4)GlcNAc = target: Gal6S(b1-4)GlcNAc
Summary of the method: as §1

Gal6S(b1-4)GlcNAc6S = target: Gal6S(b1-4)GlcNAc6S
Summary of the method: as §1

GalNAc(a1-3)Gal = target: GalNAc(a1-3)Gal
Summary of the method: as §1

GalNAc(a1-3)GalNAc = target: GalNAc(a1-3)GalNAc
Summary of the method: as §1

[5] = target: GalNAc(a1-3)GalNAc(b1-3)Gal(a1-4)Gal(b1-4)Glc
Summary of the method: as §1

[6] = target: GalNAc(a1-3)GalNAc(b1-3)Gal(a1-4)Gal(b1-4)GlcNAc
Summary of the method: as §1

GalNAc(b1-3)Gal = target: GalNAc(b1-3)Gal
Summary of the method: as §1

[7] = target: GalNAc(b1-3)Gal(a1-4)Gal(b1-4)GlcNAc
Summary of the method: as §1

[8] = target: GalNAc(b1-3)Gal(a1-4)Gal(b1-4)GlcNAc(b1-3)Gal(b1-4)Glc
Summary of the method: as §1

[9] = target: GalNAc(b1-3)Gal(a1-6)Gal(b1-4)Glc
Summary of the method: as §1

GalNAc(b1-3)GalNAc = target: GalNAc(b1-3)GalNAc
Summary of the method: as §1

GalNAc(b1-3)GlcNAc = target: GalNAc(b1-3)GlcNAc
Summary of the method: as §1

GalNAc(b1-4)Gal(b1-4)Glc = target: GalNAc(b1-4)Gal(b1-4)Glc
Summary of the method: as §1

B1: R2-fiber (Pseudomonas aeruginosa), Q9S576 (protein)
chain: HHHHHHKVAKDLVVSLAYQVRTEDGVLVDESPVSAPLDYLHGHGSLISGLETALEGHEVGDKFDVAVGANDAYGQYDENLVQRVPKDVFMGVDELQVGMRFLAETDQGPVPVEITAVEDDHVVVDGNHMLAGQNLKFNVEVVAIREATEEELAHGHVHGAHDHHHDHDHDGCCGGHGHDHGHEHGGEGCCGGKGNGGCGCHENLYFQGVTAGMALAATDIPGLDASKLVSGVLAEQRLPVFARGLATAVSNSSDPNTATVPLMLTNHANGPVAGRYFYIQSMFYPDQNGNASQIATSYNATSEMYVRVSYAANPSIREWLPWQRCDIGGSFTKEADGELPGGVNLDSMVTSGWWSQSFTAQAASGANYPIVRAGLLHVYAASSNFIYQTYQAYDGESFYFRCRHSNTWFPWRRMWHGGDFNPSDYLLKSGFYWNALPGKPATFPPSAHNHDVGQLTSGILPLARGGVGSNTAAGARSTIGAGVPATASLGASGWWRDNDTGLIRQWGQVTCPADADASITFPIPFPTLCLGGYANQTSAFHPGTDASTGFRGATTTTAVIRNGYFAQAVLSWEAFGR
For B1, the “glycan array binding signal (z-score)” value [1] was 0.137, the “glycan array binding signal (z-score)” value (Gal3S(b1-4)Glc) was -0.16 and the “glycan array binding signal (z-score)” value (Gal3S(b1-4)Glc6S) was 0.533. The “glycan array binding signal (z-score)” value (Gal3S(b1-4)GlcNAc) was 0.165, the “glycan array binding signal (z-score)” value [2] was 0.853 and the “glycan array binding signal (z-score)” value [3] was 0.391. For the same binder, the “glycan array binding signal (z-score)” value [4] was 0.196, the “glycan array binding signal (z-score)” value (Gal3S4S(b1-4)GlcNAc) was -0.439 and the “glycan array binding signal (z-score)” value (Gal3S6S(b1-4)GlcNAc) was 0.781. For the same binder, the “glycan array binding signal (z-score)” value (Gal3S6S(b1-4)GlcNAc6S) was -0.429, the “glycan array binding signal (z-score)” value (Gal4S(b1-4)GlcNAc) was -0.821 and the “glycan array binding signal (z-score)” value (Gal4S6S(b1-4)GlcNAc) was 1.74. The “glycan array binding signal (z-score)” value (Gal6P(b1-4)GlcNAc) was -0.42, the “glycan array binding signal (z-score)” value (Gal6S(b1-3)GlcNAc) was -0.111 and the “glycan array binding signal (z-score)” value (Gal6S(b1-3)GlcNAc6S) was 0.29. The “glycan array binding signal (z-score)” value (Gal6S(b1-4)Glc) was 0.263, the “glycan array binding signal (z-score)” value (Gal6S(b1-4)Glc6S) was 0.583 and the “glycan array binding signal (z-score)” value (Gal6S(b1-4)GlcNAc) was -0.119. For the same binder, the “glycan array binding signal (z-score)” value (Gal6S(b1-4)GlcNAc6S) was -0.049, the “glycan array binding signal (z-score)” value (GalNAc(a1-3)Gal) was 0.47 and the “glycan array binding signal (z-score)” value (GalNAc(a1-3)GalNAc) was 0.659. The “glycan array binding signal (z-score)” value [5] was -0.838, the “glycan array binding signal (z-score)” value [6] was -0.332 and the “glycan array binding signal (z-score)” value (GalNAc(b1-3)Gal) was -0.009. The “glycan array binding signal (z-score)” value [7] was 0.164, the “glycan array binding signal (z-score)” value [8] was -0.577 and the “glycan array binding signal (z-score)” value [9] was -0.358. The “glycan array binding signal (z-score)” value (GalNAc(b1-3)GalNAc) was -0.272, the “glycan array binding signal (z-score)” value (GalNAc(b1-3)GlcNAc) was 0.202 and the “glycan array binding signal (z-score)” value (GalNAc(b1-4)Gal(b1-4)Glc) was 0.504.
